Experiment: in vivo
Details: male, Wistar, rat, 160 mg/ml in 5 microliters

**Q.** For `CC[C@H](C)[C@H](N)C(=O)N[C@@H](C)C(=O)N[C@@H](CC(C)C)C(=O)N[C@H](C(=O)N[C@@H](CC(C)C)C(=O)N[C@@H](CCC(=O)O)C(=O)N1CCC[C@H]1C(=O)N[C@H](C(=O)N[C@@H](CS)C(=O)N[C@@H](CS)C(=O)N[C@@H](CCC(N)=O)C(=O)N[C@@H](CCC(=O)O)C(=O)N[C@@H](CCCNC(=N)N)C(=O)N[C@@H](C)C(=O)N[C@@H](C)C(=O)NCCOCCOCCOCCOCCOCCOCCOCCOCCOCCOCCOCCOCCOCCOCCOCCOCCOCCOCCOCCOCCOCCOCCOCCOCCC(=O)O)[C@@H](C)CC)[C@@H](C)CC` [RLS-0071], which level at 24 h is on record?
**A.** 120 µg/mL
